Measured values: patent US9921475B1, “Photoacid-generating compound, polymer derived therefrom, photoresist composition including the photoacid-generating compound or polymer, and method of forming a photoresist relief image” (Rohm and Haas Electronic Materials LLC, priority 2016, dated 2018)

Assay: Acid diffusion length evaluation (bilayer acid source / acid detector layer, 193 nm exposure)
Format: physicochemical
Details: for DL (nm) at PEB 100° C.: post-exposure bake 100° C. for 60 seconds; for DL (nm) at PEB 110° C.: post-exposure bake 110° C. for 60 seconds

SMILES	DL (nm) at PEB 100° C. [nm]	DL (nm) at PEB 110° C. [nm]
O=C(OCC(F)(F)S(=O)(=O)O)C12CC3CC(CC(C3)C1)C2 [Comparative PAG 1]	10.9	37.4
O=C(OCC(F)(F)S(=O)(=O)O)C12CC3CC(CC(O)(C3)C1)C2 [Comparative PAG 2]	8.1	21.9
O=C(OCC12CC3CC(CC(O)(C3)C1)C2)C(F)(F)S(=O)(=O)O [Comparative PAG 3]	5.1	19.4
